Laboratory results from PubChem BioAssay AID493014 (National Center for Advancing Translational Sciences (NCATS), 2011).
This is one part of the list. Further columns of the screen follow, without active or inactive calls. Most of these compounds were active or inconclusive in the main read-out, so they are no random draw. Potencies come from curve fits of mixed quality, noted in brackets.

Assay: qHTS Assay to Find Inhibitors of Chronic Active B-Cell Receptor Signaling
Details: ABC-DLBCL IkBa-CBG/CBR reporter, luminescence ratio (green luciferase fused to IkBa over red control in TMD8 lymphoma cells), 4 h
Summary of the method: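 Concentration-response series (up to 46 uM) were applied to TMD8 dual-reporter cells for 4 h at 37C with doxycycline. Green/red ratio, after filter-overlap correction, defined %Activity; red signal alone was normalised to basal cells and zero luminescence.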

[1] = measured here: CBR red luminescence, cell number
[2] = measured here: IkBa-CBG green luminescence

Compound	AC50 [1]	AC50 [2]
CCC(OC(=O)c1cccs1)C(=O)NCc1ccco1 (stereo unspecified)	29.1 µM [falling, single point]	–
COC(=O)c1cc(OC)c(OC)cc1NC(=O)Cc1ccccc1[N+](=O)[O-]	3.16 µM [falling, partial curve, poor fit]	–
CCN(Cc1ccccc1)C(=O)COC(=O)c1n[nH]c2ccccc12	9.2 µM [falling, partial curve]	–
COc1ccccc1OCC(=O)NC1CCCc2ccccc21 (stereo unspecified)	1.58 µM [falling, partial curve, poor fit]	–
O=C(CSc1nccn1-c1ccc(Cl)cc1)NCc1ccc2c(c1)OCO2	2.59 µM [falling, partial curve, poor fit]	–
COc1ccc(N(CC(=O)O)S(=O)(=O)c2ccc(C)cc2)cc1Cl	31.6 µM [rising, single point]	–
NS(=O)(=O)c1ccc(CNC(=O)/C=C/c2c(Cl)cccc2Cl)cc1	22.4 µM [falling, partial curve, poor fit]	–
O=C(NC1CC1)C(=O)c1c[nH]c2ccccc12	17.8 µM [falling, single point]	–
COc1cc(CC(=O)OCC(=O)Nc2ccccc2C#N)cc(OC)c1OC	3.26 µM [rising, partial curve, poor fit]	–
Cc1cccc([C@@H]2[C@@H]3C(=O)N(Cc4ccccc4)C(=O)[C@@H]3[C@]3(CC(C)C)C(=O)N(c4cccc(Cl)c4)C(=O)N23)c1	2 µM [falling, full curve, poor fit]	–
O=C1NC(=O)/C(=C/c2ccc(O)cc2)S1	10 µM [falling, partial curve, poor fit]	–
O=C(CCC(=O)Nc1ccccc1)N/N=C/c1ccncc1	7.94 µM [falling, partial curve, poor fit]	–
O=C1CN(C(=O)COC(=O)CCS(=O)(=O)c2ccccc2Cl)c2ccccc2N1	25.9 µM [falling, single point]	–
CNS(=O)(=O)c1cn(CC(=O)NCc2ccccc2OC)cc1S(=O)(=O)NC	–	11.2 µM [rising, partial curve, poor fit]
Cc1cc(C)cc(CC2CC(=O)N(c3ccc([N+](=O)[O-])cc3)C2=O)c1 (stereo unspecified)	0.562 µM [rising, full curve, poor fit]	–
COc1ccc(Cl)cc1NC(=O)c1noc2c1CCCC2	1.58 µM [rising, full curve, poor fit]	–
Cc1c(-c2ccncc2)oc2ccc(Br)cc2c1=O	10 µM [rising, partial curve, poor fit]	–
Oc1ccc(-c2nccc(-c3ccc(Cl)cc3)n2)cc1	14.1 µM [rising, partial curve, poor fit]	–
Cc1cc2ccccn2c1C(=O)c1ccc([N+](=O)[O-])o1	15.8 µM [falling, single point]	–
COc1cccc(-c2nc(C(N)=O)c3[nH]c(=O)n(-c4cccc(Cl)c4)c3n2)c1OC	9.2 µM [falling, partial curve, poor fit]	–
Cc1cc(Cl)c(S(=O)(=O)N2CCCCCC2)cc1OCC(N)=O	23.1 µM [falling, single point]	–

Compound	AC50 [1]	AC50 [2]
Cc1cc(C(=O)N/N=C/c2ccc(N(C)C)cc2)c2ccccc2n1	0.398 µM [falling, full curve, poor fit]	31.6 µM [falling, partial curve, poor fit]
CCN(CC)S(=O)(=O)c1ccc(N2CCOCC2)c(NS(=O)(=O)c2cc(C(C)(C)C)ccc2C)c1	2.31 µM [rising, partial curve, poor fit]	–
Cn1c(N)c(C(=O)COC(=O)/C=C/c2ccccc2F)c(=O)n(C)c1=O	8.2 µM [rising, partial curve]	–
O=C(CSc1nnc2scc(-c3ccccc3)n12)N1CCN(Cc2ccccc2)CC1	0.731 µM [falling, partial curve, poor fit]	–
CCCCNC(=S)Nc1ccc2nc(N3CCN(CC)CC3)cc(C)c2c1	35.5 µM [falling, single point]	–
Cc1[nH]c2ccc(F)cc2c1CCN(Cc1cccnc1)C(=S)Nc1ccc(F)cc1	14.1 µM [falling, single point]	–
CCOc1ccc(NC(=O)Nc2cccc(C(=O)O)c2)cc1	2 µM [falling, full curve]	–
O=C1C2C3c4ccccc4C(c4ccccc43)C2c2nc3ccccc3n21 (stereo unspecified)	0.731 µM [falling, partial curve, poor fit]	–
Cc1cccc(N2CCN(C(=O)C(C)C)CC2)c1C	4.11 µM [falling, single point]	–
S=C(NCc1ccccn1)Nc1ccc(Cl)c(Cl)c1	35.5 µM [falling, single point]	35.5 µM [falling, single point]
CC(=O)N1CCc2cc(C(=O)CN3CCCN(Cc4ccc(F)cc4)C3)ccc21	18.4 µM [rising, single point]	–
CN(C)c1ccc(C(=O)Nc2nnc(C3=COCCO3)o2)cc1	35.5 µM [falling, single point]	–
Cc1nc(Nc2ccc3c(c2)OCCO3)c2oc3ccccc3c2n1	0.794 µM [falling, full curve, poor fit]	–
CC/C(=N/N=C(\CC)c1ccccc1)c1ccccc1	29.1 µM [rising, single point]	–
O=C(NCCCc1ccccc1)c1cccc([N+](=O)[O-])c1	6.51 µM [rising, single point]	–
S=C(Nc1ccccc1)Nc1ccc(Br)cn1	22.4 µM [rising, partial curve, poor fit]	–
COc1ccc(C2=Nn3c(nnc3-c3ccncc3)SC2)cc1OC	25.9 µM [falling, single point]	–
COc1cccc2c1OCC1COc3c(c(=O)n(C)c(=O)n3C)C21 (stereo unspecified)	3.66 µM [falling, single point]	–
CCn1c2ccccc2c2cc(NC(=O)C(=O)N3CCOCC3)ccc21	11.2 µM [rising, partial curve, poor fit]	–
O=C(Nc1ccccc1)Nc1ccccc1C(=O)NCC1CC1	1.41 µM [falling, full curve]	–
CCc1ccc(NC(=O)CSC2=Nc3ccccc3C3=NC(CC(=O)NCc4cccs4)C(=O)N23)cc1 (stereo unspecified)	15.8 µM [falling, single point]	–

Entries of single compounds as entered above.
O=C1CN(C(=O)COC(=O)CCS(=O)(=O)c2ccccc2Cl)c2ccccc2N1 is entered as AC50 [1]: 25.9 µM [falling, single point]
COC(=O)c1cc(OC)c(OC)cc1NC(=O)Cc1ccccc1[N+](=O)[O-] is entered as AC50 [1]: 3.16 µM [falling, partial curve, poor fit]

Continued:

Compound	AC50 [1]	AC50 [2]
CCOC(=O)c1sc(NC(=S)NC(=O)c2ccc(OC)cc2)nc1C	0.794 µM [falling, full curve]	–
COc1ccc2[nH]c(=O)c(C(c3nnnn3C3CCCC3)N3CCN(Cc4ccc5c(c4)OCO5)CC3)cc2c1 (stereo unspecified)	10.3 µM [rising, partial curve, poor fit]	–
CCCC1=C(C(=O)OCC)C(c2ccccc2OC)NC(=O)N1 (stereo unspecified)	6.31 µM [rising, single point]	–
CCOC(=O)[C@H]1[C@H]2COc3ccccc3[C@@H]2N2C(=O)c3cc(OC)ccc3NC(=O)[C@@]12C	10.3 µM [falling, partial curve]	13 µM [rising, partial curve, poor fit]
Cc1ccc(S(=O)(=O)N2CCC(C(=O)Nc3ccccc3N3CCCC3)CC2)cc1	23.1 µM [rising, single point]	–
C=CCNC(=S)NNC(=O)COc1ccc(Cl)cc1Cl	20.6 µM [rising, single point]	20.6 µM [falling, single point]
COC(=O)c1cn(-c2ccccc2)nc1-c1ccncc1	10 µM [falling, single point]	–
Oc1c(/C=C/C=C/C=Nc2ccccc2)sc(=S)n1Cc1ccccc1	25.1 µM [falling, single point]	–
O=C(CSc1nccn1-c1ccccc1)c1ccc(Br)cc1	2.82 µM [rising, full curve, poor fit]	–
CCOc1ccc(-c2nnn(CC(=O)N3CCN(c4ccc(F)cc4)CC3)n2)cc1OCC	4.11 µM [falling, single point]	–
CCOc1cccc(C(=O)NC(=S)Nc2ccccc2)c1	5.8 µM [rising, partial curve, poor fit]	–
COc1cccc(CNC(=O)C2CCN(S(=O)(=O)c3cnc[nH]3)CC2)c1	2.59 µM [rising, partial curve]	–
Cc1c(C(=O)Oc2ccc(Br)cc2)sc2ncn(Cc3ccccc3F)c(=O)c12	1.12 µM [rising, full curve, poor fit]	–
CC(C)c1ccc(NC2CCCN(C(=O)c3ccncc3)C2)cc1 (stereo unspecified)	2 µM [falling, full curve]	–
COCCOC(=O)c1c(C)n(C)c2ccc(OC(=O)c3ccco3)cc12	23.1 µM [falling, single point]	–
COc1ccc(-c2nc3ccccc3c(=O)n2-c2c(C)n(C)n(-c3ccccc3)c2=O)cc1	35.5 µM [rising, single point]	–
CCc1ccc[n+](-c2[nH]c(=O)sc2/C=N/N=C(\N)[O-])c1	35.5 µM [rising, single point]	–
O=C(Nc1ccc2c(c1)OCO2)C1CCCCC1	12.6 µM [falling, single point]	–
COc1ccc(-c2nnc(CSc3nc4ccccc4c(=O)n3CC(C)C)o2)cc1OC	25.9 µM [falling, single point]	–
O=C(N/N=C/c1cccc(OCc2ccccc2)c1)c1cccs1	2 µM [falling, partial curve, poor fit]	–
